The source of these data is publication PMC10709936.

By UniProt entry, the sequences of proteins in these tests, tags left out. Residues count along the entry.
UniProt P01024, residues 672-748: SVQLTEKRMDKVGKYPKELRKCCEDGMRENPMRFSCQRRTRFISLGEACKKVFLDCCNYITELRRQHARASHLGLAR

No constants are given. Whether binding was seen depends on the method and setting. Binding seen in cells or lysates may run through a third protein. Some entries that bind do so weakly or less than the wild type.

For assay [1], the target named is C3a protein with 3XFlag tag (pcDNA3.1-C3a-Flag) (human) (UniProt P01024). As to the kind of experiment: co-IP; 293 T cells transfected with pcDNA3.1-C3a-peptide-Flag or pcDNA3.1-C3a-Flag; anti-Flag magnetic beads; blot for C3aR.
For assay [2], the target named is C3a-peptide with 3XFlag tag (pcDNA3.1-C3a-peptide-Flag) (human). The description is as above.

B1: C3a receptor (C3aR) in 293 T cells (receptor, UniProt Q16581 1-482)
chain: MASFSAETNSTDLLSQPWNEPPVILSMVILSLTFLLGLPGNGLVLWVAGLKMQRTVNTIWFLHLTLADLLCCLSLPFSLAHLALQGQWPYGRFLCKLIPSIIVLNMFASVFLLTAISLDRCLVVFKPIWCQNHRNVGMACSICGCIWVVAFVMCIPVFVYREIFTTDNHNRCGYKFGLSSSLDYPDFYGDPLENRSLENIVQPPGEMNDRLDPSSFQTNDHPWTVPTVFQPQTFQRPSADSLPRGSARLTSQNLYSNVFKPADVVSPKIPSGFPIEDHETSPLDNSDAFLSTHLKLFPSASSNSFYESELPQGFQDYYNLGQFTDDDQVPTPLVAITITRLVVGFLLPSVIMIACYSFIVFRMQRGRFAKSQSKTFRVAVVVVAVFLVCWTPYHIFGVLSLLTDPETPLGKTLMSWDHVCIALASANSCFNPFLYALLGKDFRKKARQSIQGILEAAFSEELTRSTHCPSNNVISERNSTTV
On to B1, for which the binding result in assay [1] and in assay [2] was “binds” in each case.
